Data published in US4332787A, “Assay for beta-adrenergic antagonists and antibody therefor” (The Massachusetts General Hospital, priority 1980, dated 1982).

Biological target: antibody (antiacebutolol amine immune serum)
Experiment: Competitive binding inhibition of 3H-(-)-propranolol to anti-acebutolol amine antibody (radioimmunoassay)
Design: species or system rabbit
Details: 3H-(-)-propranolol displacement from antibody; read-out: apparent KD (competitive binding inhibition)
Experimental: Acebutolol amine having the formula: [drawing 3] was covalently linked to lysozyme. 150 mg of acebutolol amine was dissolved in 1.0 N HCl and was cooled to 0° C. in a salt ice bath. To this solution was added 1 cc of 0.5 M NaNO2 also at 0° C. and the resultant mixture was allowed to stand at 0° C. for 10 min. A mixture of 200 mg crystalline lysozyme in 15% aqueous sodium carbonate at 0° C. was added to 2.0 cc of the above mixture. […] The resultant product was dialyzed against phosphate buffered saline and the purified conjugate was frozen in dry ice-acetone and stored at -20° C. The product then was thawed and centrifuged for 10 min at 3000 rpm. The supernatant was recovered and mixed with Tris buffer, pH 7 at a concentration of 30 mg/ml.
Albino rabbits were immunized with this conjugate at monthly intervals for four months. Each rabbit received intracutaneous toepad injections of 0.5 mg of protein emulsified in complete Freund's adjuvant.
The assays were performed in triplicate. […] For each determination, an identical volume of preimmune serum was assayed as a control for antibody binding. […] Bound radioactivity was counted in the presence of 10 ml of Aquasol-2 (New England Nuclear) in a Packard Tricarb liquid scintillation counter with a counting efficiency of 40%. […]

Q: Which Kd does the source give for `CC(C)NCC(O)COc1cccc2ccccc12` (racemic) [propranolol] here?
A: 10 nM
